Paper PMC4172784

Target: T1, HA-tagged BIV Vif (VR-BIV Vif-HA) (bovine immunodeficiency virus (BIV BIM127)) (UniProt P19563)
T1 sequence: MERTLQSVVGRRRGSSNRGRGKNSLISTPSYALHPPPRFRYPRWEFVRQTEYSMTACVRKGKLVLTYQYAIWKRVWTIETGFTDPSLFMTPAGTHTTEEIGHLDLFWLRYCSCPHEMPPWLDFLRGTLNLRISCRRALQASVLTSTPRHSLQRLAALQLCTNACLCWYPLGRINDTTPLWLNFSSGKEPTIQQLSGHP
Assay: co-IP

cmyc-tagged btCul2 (VR-btCul2-cmyc) (Bos taurus)
binding: binds

Results are given in words; binding and its absence hold for the method and conditions named. Binding seen in cells or lysates may run through a third protein. A result given as binding can be weak or reduced; the word gives no strength. Tags and fused reporters may be left off the sequences shown.
